Measured values reported in the supplement of paper PMC10849652.
Some of the results follow. Residues, ends and D or L forms follow the SMILES beside them. *: point of attachment. Cbz = O=C(OCc1ccccc1)*

Chains of the proteins cited; added tags and fusions are not shown. Lines headed by an entry give the natural chain unless they say otherwise; changes in a name come on top.
UniProt P02649, whole entry, looked up: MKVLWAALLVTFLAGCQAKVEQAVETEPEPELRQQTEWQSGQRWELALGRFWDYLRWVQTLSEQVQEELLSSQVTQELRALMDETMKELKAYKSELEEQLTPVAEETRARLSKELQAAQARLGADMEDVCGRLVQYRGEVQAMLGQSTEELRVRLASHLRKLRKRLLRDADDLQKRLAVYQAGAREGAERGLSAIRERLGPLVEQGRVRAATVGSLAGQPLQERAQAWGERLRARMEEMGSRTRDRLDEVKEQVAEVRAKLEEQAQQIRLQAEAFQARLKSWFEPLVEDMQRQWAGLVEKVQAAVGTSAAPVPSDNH
UniProt Q8IWW6: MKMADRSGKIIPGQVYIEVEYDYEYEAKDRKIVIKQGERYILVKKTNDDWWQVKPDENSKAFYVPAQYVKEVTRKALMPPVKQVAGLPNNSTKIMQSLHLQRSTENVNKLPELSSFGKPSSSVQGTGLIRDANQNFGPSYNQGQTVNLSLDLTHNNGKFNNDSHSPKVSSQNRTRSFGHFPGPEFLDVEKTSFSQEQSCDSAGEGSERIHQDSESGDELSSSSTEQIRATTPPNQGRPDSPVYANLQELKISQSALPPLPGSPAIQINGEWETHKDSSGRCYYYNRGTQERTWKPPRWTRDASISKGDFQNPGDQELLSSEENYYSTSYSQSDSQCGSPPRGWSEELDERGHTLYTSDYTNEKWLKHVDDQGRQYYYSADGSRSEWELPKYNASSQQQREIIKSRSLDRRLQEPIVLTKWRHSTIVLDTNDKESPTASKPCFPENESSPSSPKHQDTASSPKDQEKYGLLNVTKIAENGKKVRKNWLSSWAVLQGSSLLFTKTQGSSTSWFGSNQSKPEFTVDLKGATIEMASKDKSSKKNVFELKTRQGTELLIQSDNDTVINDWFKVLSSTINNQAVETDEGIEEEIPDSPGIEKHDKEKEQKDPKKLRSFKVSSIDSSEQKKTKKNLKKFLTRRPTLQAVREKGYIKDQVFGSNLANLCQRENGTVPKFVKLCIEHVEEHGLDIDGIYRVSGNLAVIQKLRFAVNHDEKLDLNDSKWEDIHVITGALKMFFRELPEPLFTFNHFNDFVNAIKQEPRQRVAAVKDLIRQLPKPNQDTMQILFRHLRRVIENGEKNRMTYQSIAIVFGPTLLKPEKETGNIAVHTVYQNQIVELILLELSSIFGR
UniProt P78540: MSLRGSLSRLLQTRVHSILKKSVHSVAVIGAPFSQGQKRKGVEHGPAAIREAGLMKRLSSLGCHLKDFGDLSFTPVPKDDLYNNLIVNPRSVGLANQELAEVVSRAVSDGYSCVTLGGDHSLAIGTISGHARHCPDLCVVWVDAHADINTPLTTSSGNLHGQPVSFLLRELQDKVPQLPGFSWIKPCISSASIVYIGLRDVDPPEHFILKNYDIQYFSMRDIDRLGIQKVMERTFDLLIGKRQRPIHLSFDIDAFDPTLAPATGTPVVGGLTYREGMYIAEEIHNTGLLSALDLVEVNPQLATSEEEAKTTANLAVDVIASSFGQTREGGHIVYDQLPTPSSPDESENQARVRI
UniProt Q6UXV4: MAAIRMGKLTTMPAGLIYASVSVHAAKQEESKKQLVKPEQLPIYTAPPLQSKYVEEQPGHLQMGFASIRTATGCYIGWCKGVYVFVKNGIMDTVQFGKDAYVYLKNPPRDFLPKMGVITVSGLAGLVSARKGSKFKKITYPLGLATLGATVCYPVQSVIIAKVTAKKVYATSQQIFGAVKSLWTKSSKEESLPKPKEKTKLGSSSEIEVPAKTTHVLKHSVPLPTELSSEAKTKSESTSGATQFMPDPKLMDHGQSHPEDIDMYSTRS
UniProt Q9UJX3, whole entry, looked up: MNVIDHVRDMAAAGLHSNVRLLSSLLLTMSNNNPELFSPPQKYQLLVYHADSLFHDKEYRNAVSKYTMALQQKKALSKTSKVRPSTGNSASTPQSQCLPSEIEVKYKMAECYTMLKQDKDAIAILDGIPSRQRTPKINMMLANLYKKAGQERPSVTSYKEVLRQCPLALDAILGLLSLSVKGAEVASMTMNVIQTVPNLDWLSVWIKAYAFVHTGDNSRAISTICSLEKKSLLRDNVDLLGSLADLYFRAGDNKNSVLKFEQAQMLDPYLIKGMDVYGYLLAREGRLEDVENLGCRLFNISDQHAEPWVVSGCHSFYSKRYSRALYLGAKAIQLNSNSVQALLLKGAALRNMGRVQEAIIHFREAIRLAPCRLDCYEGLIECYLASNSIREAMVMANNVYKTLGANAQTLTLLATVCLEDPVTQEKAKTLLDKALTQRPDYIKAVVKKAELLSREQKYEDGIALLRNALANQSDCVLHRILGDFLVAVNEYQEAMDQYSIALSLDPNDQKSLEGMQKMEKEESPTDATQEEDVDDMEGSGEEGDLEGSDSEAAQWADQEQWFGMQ
UniProt Q8IZ07: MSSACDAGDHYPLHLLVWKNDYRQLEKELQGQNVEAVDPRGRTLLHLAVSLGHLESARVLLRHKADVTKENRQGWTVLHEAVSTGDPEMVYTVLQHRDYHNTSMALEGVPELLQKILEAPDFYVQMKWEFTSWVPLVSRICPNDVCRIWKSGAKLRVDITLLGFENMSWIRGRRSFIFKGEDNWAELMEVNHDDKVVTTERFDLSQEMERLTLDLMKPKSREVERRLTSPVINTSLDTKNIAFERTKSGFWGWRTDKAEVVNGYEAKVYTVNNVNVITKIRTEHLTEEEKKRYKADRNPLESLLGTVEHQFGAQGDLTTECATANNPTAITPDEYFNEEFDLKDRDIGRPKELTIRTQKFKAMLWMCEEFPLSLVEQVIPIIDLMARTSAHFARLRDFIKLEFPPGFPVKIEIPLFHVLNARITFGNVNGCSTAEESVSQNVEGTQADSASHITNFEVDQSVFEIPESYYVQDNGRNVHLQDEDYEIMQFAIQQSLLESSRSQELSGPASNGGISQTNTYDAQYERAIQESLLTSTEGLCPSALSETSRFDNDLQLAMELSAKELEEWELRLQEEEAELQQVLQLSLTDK
UniProt P52566: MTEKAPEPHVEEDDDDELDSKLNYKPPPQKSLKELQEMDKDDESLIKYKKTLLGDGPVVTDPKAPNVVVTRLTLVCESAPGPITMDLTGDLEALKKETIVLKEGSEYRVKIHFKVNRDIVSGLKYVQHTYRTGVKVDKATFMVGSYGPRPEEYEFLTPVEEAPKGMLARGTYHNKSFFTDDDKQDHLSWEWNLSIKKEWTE
UniProt O14497, whole entry, looked up: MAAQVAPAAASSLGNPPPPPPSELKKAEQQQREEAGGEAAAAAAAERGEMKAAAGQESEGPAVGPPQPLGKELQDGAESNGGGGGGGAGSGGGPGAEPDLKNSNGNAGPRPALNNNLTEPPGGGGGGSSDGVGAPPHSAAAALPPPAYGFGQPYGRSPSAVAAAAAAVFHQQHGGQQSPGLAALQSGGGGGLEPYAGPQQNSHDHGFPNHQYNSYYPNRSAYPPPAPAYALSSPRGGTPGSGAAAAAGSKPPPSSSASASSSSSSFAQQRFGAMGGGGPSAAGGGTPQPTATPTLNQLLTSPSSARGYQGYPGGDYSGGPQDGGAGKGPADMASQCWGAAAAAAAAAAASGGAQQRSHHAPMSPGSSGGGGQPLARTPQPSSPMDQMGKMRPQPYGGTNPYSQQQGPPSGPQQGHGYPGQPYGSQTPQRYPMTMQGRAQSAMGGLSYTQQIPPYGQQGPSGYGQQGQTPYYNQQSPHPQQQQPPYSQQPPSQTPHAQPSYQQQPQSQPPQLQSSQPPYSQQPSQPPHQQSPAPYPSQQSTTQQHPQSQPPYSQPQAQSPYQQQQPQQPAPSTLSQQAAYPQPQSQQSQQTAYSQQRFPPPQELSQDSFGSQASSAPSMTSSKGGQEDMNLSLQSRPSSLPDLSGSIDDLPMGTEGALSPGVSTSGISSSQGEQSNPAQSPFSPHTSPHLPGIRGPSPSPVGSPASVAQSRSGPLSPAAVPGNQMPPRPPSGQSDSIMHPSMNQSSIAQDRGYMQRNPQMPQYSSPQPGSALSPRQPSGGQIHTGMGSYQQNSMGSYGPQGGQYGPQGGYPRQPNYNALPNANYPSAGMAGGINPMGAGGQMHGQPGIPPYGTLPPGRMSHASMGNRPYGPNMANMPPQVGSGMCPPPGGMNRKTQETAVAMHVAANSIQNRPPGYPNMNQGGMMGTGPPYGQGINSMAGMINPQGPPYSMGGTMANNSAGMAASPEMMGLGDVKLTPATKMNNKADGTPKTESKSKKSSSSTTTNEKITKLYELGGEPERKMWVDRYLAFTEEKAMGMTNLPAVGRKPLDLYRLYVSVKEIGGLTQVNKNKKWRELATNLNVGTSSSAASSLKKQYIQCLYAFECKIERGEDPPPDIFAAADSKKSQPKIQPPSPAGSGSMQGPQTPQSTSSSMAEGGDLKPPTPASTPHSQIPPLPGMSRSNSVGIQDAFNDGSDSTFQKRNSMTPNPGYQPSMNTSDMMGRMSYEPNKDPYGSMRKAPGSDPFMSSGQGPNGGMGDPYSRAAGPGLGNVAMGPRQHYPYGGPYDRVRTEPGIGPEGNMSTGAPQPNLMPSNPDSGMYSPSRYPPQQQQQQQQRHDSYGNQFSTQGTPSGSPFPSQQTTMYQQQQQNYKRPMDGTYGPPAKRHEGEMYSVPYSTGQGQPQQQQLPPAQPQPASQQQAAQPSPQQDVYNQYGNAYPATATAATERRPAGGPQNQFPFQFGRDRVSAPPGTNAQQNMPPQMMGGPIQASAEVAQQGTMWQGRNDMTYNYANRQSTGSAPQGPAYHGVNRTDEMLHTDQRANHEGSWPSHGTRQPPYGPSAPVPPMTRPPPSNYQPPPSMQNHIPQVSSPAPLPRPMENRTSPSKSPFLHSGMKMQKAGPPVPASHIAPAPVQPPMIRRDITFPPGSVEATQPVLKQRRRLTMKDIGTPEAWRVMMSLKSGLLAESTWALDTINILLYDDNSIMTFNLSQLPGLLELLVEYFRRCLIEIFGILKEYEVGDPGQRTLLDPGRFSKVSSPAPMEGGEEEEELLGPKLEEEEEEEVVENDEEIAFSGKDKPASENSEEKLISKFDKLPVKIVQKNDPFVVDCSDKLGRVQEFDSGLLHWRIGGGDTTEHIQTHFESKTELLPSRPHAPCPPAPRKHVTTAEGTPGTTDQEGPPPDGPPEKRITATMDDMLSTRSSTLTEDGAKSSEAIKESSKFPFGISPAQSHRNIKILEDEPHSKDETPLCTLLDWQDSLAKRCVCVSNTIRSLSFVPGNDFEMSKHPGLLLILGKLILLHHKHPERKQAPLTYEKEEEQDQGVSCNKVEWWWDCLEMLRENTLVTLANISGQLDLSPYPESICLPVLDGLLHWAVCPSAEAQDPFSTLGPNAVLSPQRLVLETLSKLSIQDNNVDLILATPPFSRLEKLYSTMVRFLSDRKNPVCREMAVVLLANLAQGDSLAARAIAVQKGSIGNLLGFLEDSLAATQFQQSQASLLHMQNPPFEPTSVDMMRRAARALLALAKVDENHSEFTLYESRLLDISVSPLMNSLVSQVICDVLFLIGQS
UniProt P39687: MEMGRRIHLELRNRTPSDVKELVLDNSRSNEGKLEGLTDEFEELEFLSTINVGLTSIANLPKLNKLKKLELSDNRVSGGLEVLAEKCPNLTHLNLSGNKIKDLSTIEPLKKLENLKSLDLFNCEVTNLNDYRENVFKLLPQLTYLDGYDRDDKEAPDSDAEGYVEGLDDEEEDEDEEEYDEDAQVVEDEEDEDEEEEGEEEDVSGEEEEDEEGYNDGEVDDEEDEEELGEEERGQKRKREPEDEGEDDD
UniProt Q92888: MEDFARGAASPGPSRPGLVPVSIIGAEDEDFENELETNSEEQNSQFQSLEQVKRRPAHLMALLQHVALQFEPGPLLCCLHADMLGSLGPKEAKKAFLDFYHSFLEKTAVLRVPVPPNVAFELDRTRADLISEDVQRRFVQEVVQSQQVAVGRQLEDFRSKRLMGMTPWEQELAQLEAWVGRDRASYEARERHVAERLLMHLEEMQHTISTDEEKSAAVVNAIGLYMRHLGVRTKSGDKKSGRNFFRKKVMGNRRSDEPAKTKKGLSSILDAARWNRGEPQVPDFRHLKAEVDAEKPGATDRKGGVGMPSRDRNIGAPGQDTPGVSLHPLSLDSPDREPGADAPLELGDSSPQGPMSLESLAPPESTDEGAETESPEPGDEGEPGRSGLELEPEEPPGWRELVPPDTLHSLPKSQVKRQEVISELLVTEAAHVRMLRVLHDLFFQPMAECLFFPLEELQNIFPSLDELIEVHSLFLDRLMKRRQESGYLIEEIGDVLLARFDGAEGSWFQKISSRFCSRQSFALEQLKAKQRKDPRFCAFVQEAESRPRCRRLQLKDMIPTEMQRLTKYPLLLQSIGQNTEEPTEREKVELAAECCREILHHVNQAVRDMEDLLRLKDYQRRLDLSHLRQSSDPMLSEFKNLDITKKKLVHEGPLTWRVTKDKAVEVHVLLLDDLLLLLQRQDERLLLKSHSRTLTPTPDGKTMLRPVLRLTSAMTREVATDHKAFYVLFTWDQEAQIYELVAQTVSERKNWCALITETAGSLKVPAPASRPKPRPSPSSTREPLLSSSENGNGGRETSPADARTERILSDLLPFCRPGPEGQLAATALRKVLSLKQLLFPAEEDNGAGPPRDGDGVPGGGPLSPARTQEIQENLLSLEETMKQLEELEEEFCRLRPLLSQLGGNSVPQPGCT

Assays:
Assay in all cases: log2 fold change, soluble protein after heating vs DMSO (PISA); higher = thermal stabilisation; K562 cells, 10 uM, 30 min; active = over 0.2 and 3.5 SD of the protein, either way, in both replicates (recomputed)
IRAK-1-4 Inhibitor I = compound: C1COCCN1CCN2C3=CC=CC=C3N=C2NC(=O)C4=CC(=CC=C4)[N+](=O)[O-] [IRAK-1-4 Inhibitor I]
How it was run: (§1)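 K562 cells at 2×10^6 cells/mL were exposed to 10 μM compound for 30 min, then aliquots were heated for 3 min across 48°C-58°C, pooled, and extracted in PBS containing 0.5% NP-40 at 4°C. The supernatant after 21,000xg for 90 min was taken as soluble protein and measured by TMTpro 16plex LC-MS/MS with channel sums equalised. Thermal stability is reported relative to control samples, with values from duplicates. Fold changes are given on a log2 scale.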

ibrutinib = compound: C=CC(=O)N1CCC[C@@H](n2nc(-c3ccc(Oc4ccccc4)cc3)c3c(N)ncnc32)C1 [ibrutinib]
How it was run: as §1

[1] = compound: CC(=O)c1cnc2ccc(-c3cc(Cl)c(O)c(Cl)c3)nc2c1N[C@H]1CC[C@H](CN(C)C)CC1
How it was run: as §1

ralimetinib = compound: CC(C)(C)Cn1c(N)nc2ccc(-c3[nH]c(C(C)(C)C)nc3-c3ccc(F)cc3)nc21 [ralimetinib]
How it was run: as §1

[2] = compound: CC(C)(O)CC(=O)NCCn1ccc2ncnc(Nc3ccc(Oc4cccc(C(F)(F)F)c4)c(Cl)c3)c21
How it was run: as §1

[3] = compound: CC(C)C1=C2N=C(C=C(N2N=C1)NCC3=CC=CC=C3)NCCCCCCN
How it was run: as §1

[4] = compound: CC(C)C[C@@H](C=O)NC(=O)[C@H](CC(C)C)NC(=O)[C@H](CC(C)C)NC(=O)OCc1ccccc1
How it was run: as §1

pinometostat = compound: CC(C)N(C[C@H]1O[C@@H](n2cnc3c(N)ncnc32)[C@H](O)[C@@H]1O)[C@H]1C[C@@H](CCc2nc3cc(C(C)(C)C)ccc3[nH]2)C1 [pinometostat]
How it was run: as §1

[5] = compound: CC1=C(C(CC(=O)N1)C2=CC=C(C=C2)C(F)(F)F)C(=O)NC3=C(C=C4C(=C3)C=NN4)F
How it was run: as §1

[6] = compound: CC1=C(C2=C(C=C1)C(=O)C3=CC=CC=C3N2CCCN)C
How it was run: as §1

Measured: log2 fold change

ARHGAP17 (UniProt Q68EM7)
inactive: IRAK-1-4 Inhibitor I -0.113 | ibrutinib -0.05 | [1] 0.075 | ralimetinib 0.081 | [2] -0.04 | [3] -0.294 | [4] 0.102 | pinometostat 0.157 | [5] -0.027 | [6] 0.064

ANXA3 (UniProt P12429)
inactive: IRAK-1-4 Inhibitor I 0.043 | ibrutinib 0.039 | [1] -0.024 | ralimetinib -0.031 | [2] -0.007 | [3] 0.019 | [4] 0.032 | pinometostat 0.015 | [5] 0.001 | [6] 0.097

ANKRD49 (UniProt Q8WVL7)
inactive: IRAK-1-4 Inhibitor I -0.01 | ibrutinib -0.095 | [1] -0.089 | ralimetinib -0.037 | [2] -0.081 | [3] 0.033 | [4] -0.015 | pinometostat -0.045 | [5] 0.002 | [6] 0.035

AP3B1 (UniProt O00203)
inactive: IRAK-1-4 Inhibitor I -0.024 | ibrutinib -0.024 | [1] -0.01 | ralimetinib 0.06 | [2] -0.071 | [3] -0.055 | [4] 0.004 | pinometostat 0.023 | [5] -0.004 | [6] -0.012

APOE (UniProt P02649)
inactive: IRAK-1-4 Inhibitor I -0.015 | ibrutinib 0.175 | [1] -0.008 | ralimetinib -0.008 | [2] 0.187 | [3] 0.059 | [4] 0.009 | pinometostat -0.057 | [5] -0.049 | [6] -0.08

ARHGAP12 (UniProt Q8IWW6)
inactive: IRAK-1-4 Inhibitor I 0.096 | ibrutinib 0.112 | [1] -0.17 | ralimetinib 0.03 | [2] -0.049 | [3] 0.009 | [4] 0.09 | pinometostat 0 | [5] -0.036 | [6] 0.097

ANTXR2 isoform 4 (UniProt P58335)
inactive: IRAK-1-4 Inhibitor I 0.092 | ibrutinib 0.026 | [1] -0.048 | ralimetinib -0.085 | [2] 0.055 | [3] 0.075 | [4] 0.044 | pinometostat -0.021 | [5] -0.011 | [6] -0.038

ANO10 (UniProt Q9NW15)
inactive: IRAK-1-4 Inhibitor I 0.023 | ibrutinib -0.066 | [1] -0.068 | ralimetinib -0.051 | [2] -0.046 | [3] -0.129 | [4] -0.007 | pinometostat -0.05 | [5] -0.059 | [6] -0.006

ARG2 (UniProt P78540)
inactive: IRAK-1-4 Inhibitor I 0.09 | ibrutinib 0.025 | [1] 0.016 | ralimetinib -0.013 | [2] -0.015 | [3] -0.009 | [4] 0.002 | pinometostat -0.068 | [5] 0.012 | [6] -0.052

AP3M1 (UniProt Q9Y2T2)
inactive: IRAK-1-4 Inhibitor I -0.015 | ibrutinib -0.007 | [1] -0.021 | ralimetinib 0 | [2] -0.15 | [3] -0.02 | [4] 0.048 | pinometostat 0.014 | [5] 0.015 | [6] -0.024

APOBR (UniProt Q0VD83)
inactive: IRAK-1-4 Inhibitor I 0.053 | ibrutinib 0.041 | [1] -0.037 | ralimetinib -0.006 | [2] -0.021 | [3] 0.043 | [4] 0.023 | pinometostat 0.002 | [5] 0.045 | [6] -0.025

APOOL (UniProt Q6UXV4)
inactive: IRAK-1-4 Inhibitor I 0.08 | ibrutinib 0.041 | [1] 0.032 | ralimetinib -0.019 | [2] -0.009 | [3] 0.086 | [4] -0.012 | pinometostat 0.015 | [5] -0.011 | [6] -0.016

Taken from the listing (2 entries):
AP3M1 (UniProt Q9Y2T2)
inactive: IRAK-1-4 Inhibitor I -0.015 | ibrutinib -0.007 | [1] -0.021 | ralimetinib 0 | [2] -0.15 | [3] -0.02 | [4] 0.048 | pinometostat 0.014 | [5] 0.015 | [6] -0.024

APOBR (UniProt Q0VD83)
inactive: IRAK-1-4 Inhibitor I 0.053 | ibrutinib 0.041 | [1] -0.037 | ralimetinib -0.006 | [2] -0.021 | [3] 0.043 | [4] 0.023 | pinometostat 0.002 | [5] 0.045 | [6] -0.025

Following part:

ARFIP2 (UniProt P53365)
inactive: IRAK-1-4 Inhibitor I 0.045 | ibrutinib -0.034 | [1] -0.034 | ralimetinib -0.113 | [2] -0.18 | [3] -0.106 | [4] 0.038 | pinometostat 0.114 | [5] 0.116 | [6] 0.016

AP4E1 (UniProt Q9UPM8)
inactive: IRAK-1-4 Inhibitor I 0.016 | ibrutinib 0.085 | [1] -0.081 | ralimetinib 0.033 | [2] 0.042 | [3] -0.055 | [4] 0.026 | pinometostat 0.095 | [5] -0.203 | [6] 0.128

ANAPC4 isoform 3 (UniProt Q9UJX5)
inactive: IRAK-1-4 Inhibitor I -0.03 | ibrutinib 0.004 | [1] 0.006 | ralimetinib 0.056 | [2] 0.036 | [3] -0.051 | [4] 0.001 | pinometostat 0.065 | [5] -0.004 | [6] -0.041

AP1G1 isoform 2 (UniProt O43747)
inactive: IRAK-1-4 Inhibitor I -0.023 | ibrutinib -0.028 | [1] 0.043 | ralimetinib 0.115 | [2] -0.089 | [3] -0.072 | [4] -0.037 | pinometostat 0.057 | [5] 0.03 | [6] 0.052

ANAPC7 (UniProt Q9UJX3)
inactive: IRAK-1-4 Inhibitor I -0.047 | ibrutinib 0 | [1] 0.004 | ralimetinib 0.093 | [2] -0.014 | [3] -0.035 | [4] 0.033 | pinometostat 0.038 | [5] 0.025 | [6] -0.053

ARFGEF2 (UniProt Q9Y6D5)
inactive: IRAK-1-4 Inhibitor I -0.021 | ibrutinib -0.031 | [1] 0.047 | ralimetinib 0.002 | [2] 0.001 | [3] -0.058 | [4] 0.026 | pinometostat 0.052 | [5] -0.051 | [6] -0.026

ANXA7 (UniProt P20073)
inactive: IRAK-1-4 Inhibitor I 0.037 | ibrutinib 0.018 | [1] 0.009 | ralimetinib 0.007 | [2] -0.03 | [3] 0.025 | [4] -0.012 | pinometostat -0.038 | [5] 0.046 | [6] 0.007

ANKRD13A (UniProt Q8IZ07)
inactive: IRAK-1-4 Inhibitor I 0.078 | ibrutinib -0.008 | [1] -0.022 | ralimetinib -0.01 | [2] 0.019 | [3] 0.038 | [4] 0.038 | pinometostat 0.017 | [5] 0.03 | [6] -0.041

APEX1 (UniProt P27695)
inactive: IRAK-1-4 Inhibitor I 0.021 | ibrutinib -0.029 | [1] -0.031 | ralimetinib 0.009 | [2] -0.085 | [3] -0.115 | [4] -0.074 | pinometostat -0.034 | [5] -0.027 | [6] 0.001

AP5Z1 (UniProt O43299)
inactive: IRAK-1-4 Inhibitor I 0.253 | ibrutinib 0.106 | [1] -0.107 | ralimetinib -0.059 | [2] 0.066 | [3] 0 | [4] 0.091 | pinometostat 0.058 | [5] -0.004 | [6] 0.07

ARHGDIB (UniProt P52566)
inactive: IRAK-1-4 Inhibitor I 0.037 | ibrutinib -0.031 | [1] -0.017 | ralimetinib -0.018 | [2] -0.01 | [3] 0.039 | [4] -0.021 | pinometostat 0.002 | [5] -0.021 | [6] 0.044

ARID1A (UniProt O14497)
inactive: IRAK-1-4 Inhibitor I -0.109 | ibrutinib -0.165 | [1] -0.059 | ralimetinib 0.057 | [2] 0.015 | [3] -0.131 | [4] -0.002 | pinometostat -0.035 | [5] -0.025 | [6] 0.063

ANP32A (UniProt P39687)
inactive: IRAK-1-4 Inhibitor I -0.022 | ibrutinib -0.026 | [1] -0.006 | ralimetinib 0 | [2] -0.051 | [3] 0.008 | [4] -0.054 | pinometostat -0.132 | [5] 0.034 | [6] -0.11

ARHGEF1 isoform 3 (UniProt Q92888)
inactive: IRAK-1-4 Inhibitor I -0.093 | ibrutinib -0.007 | [1] -0.007 | ralimetinib 0.149 | [2] 0.05 | [3] -0.275 | [4] 0.098 | pinometostat 0.222 | [5] -0.019 | [6] -0.044

AP1B1 (UniProt Q10567)
inactive: IRAK-1-4 Inhibitor I -0.008 | ibrutinib 0.001 | [1] 0.031 | ralimetinib 0.034 | [2] -0.026 | [3] -0.041 | [4] -0.047 | pinometostat 0.007 | [5] 0 | [6] 0

ANAPC5 (UniProt Q9UJX4)
inactive: IRAK-1-4 Inhibitor I -0.037 | ibrutinib -0.026 | [1] -0.028 | ralimetinib 0.043 | [2] 0.006 | [3] -0.008 | [4] 0.053 | pinometostat 0.085 | [5] -0.027 | [6] -0.06

AP3D1 isoform 5 (UniProt O14617)
inactive: IRAK-1-4 Inhibitor I -0.049 | ibrutinib -0.013 | [1] -0.039 | ralimetinib 0.049 | [2] -0.045 | [3] -0.043 | [4] 0.011 | pinometostat 0.043 | [5] 0.019 | [6] -0.034
